The record followed here is PubChem BioAssay AID2685 (National Center for Advancing Translational Sciences (NCATS), 2010).

The experiment is described as follows: qHTS Assay for Lipid Storage Modulators in Drosophila S3 Cells.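 On cell number change: cells counted by Cell Tracker Red CMTPX staining in the red channel.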 Conditions: BODIPY lipid droplet fluorescence, 18-24 h; for cell number change: measured here: cell count max response, cells fed with added oleic acid. The method, boiled down:
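Drosophila S3 cells loaded with oleic acid (400 uM, as added) and compounds at several concentrations; lipid droplets imaged by 488-nm laser-scanning cytometry, 500–530 nm intensity and object ratio to cell channel. Percent activity normalized to 20 uM Triacsin C.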
On the technique in general: Quantitative high-throughput screening tests each substance at several concentrations.

The mark [1] stands for this setting: measured here: cell number channel AC50, cells fed with added oleic acid.
The mark [2] stands for this setting: measured here: lipid fluorescence (Fed channel) AC50, cells fed with added oleic acid.

This is one part of the list. Further columns of the screen follow, without active or inactive calls. Most of these compounds were active or inconclusive in the main read-out, so they are no random draw. The note in brackets gives the kind of curve behind each potency; many fits are weak.

As for `COCCn1c(SCC(=O)Nc2cccc(C)n2)nnc1-c1ccco1`, the cell number change was -54.2%. Moreover, under setting [1], the AC50 (commonly the midpoint of the concentration-response curve, whichever way the signal moves) is 7.31 µM [falling, partial curve]. Besides, under setting [2], the AC50 is 7.31 µM [falling, partial curve].
On to `S=c1[nH]nc(CCc2ccc(Cl)cc2)o1`, for which the cell number change worked out at 41.1%. The half-maximal activity concentration (AC50) under setting [1] is 1.03 µM [rising, partial curve].
Take `C=CCOc1ccc(C(=O)Nc2ccc3c(c2)n(C)c(=O)n3C)cc1`: the cell number change came out at 17.2%. In addition, under setting [2], the AC50 was 0.146 µM [rising, full curve, poor fit].
Consider `Cc1sc2nc(N3CCOCC3)[nH]c(=O)c2c1-c1ccccc1`, for which the cell number change was -46.7%. For the same compound, the AC50 under setting [1] is 4.11 µM [falling, full curve]. Also, under setting [2], the AC50 was 16.4 µM [falling, single point].
In the case of `CNC(=S)SCCOc1ccccc1C`, the cell number change is -34.3%. In addition, the AC50 under setting [1] was 4.11 µM [falling, partial curve, poor fit]. In addition, the AC50 under setting [2] was 5.17 µM [falling, partial curve, poor fit].
`O=C(c1ccc2c(=O)n3c(nc2c1)CCC3)N1CCN(S(=O)(=O)c2cccc(F)c2)CC1`: the cell number change is -25%. For the same compound, the AC50 under setting [1] was 3.66 µM [falling, full curve, poor fit].
In the case of `O=C(CN1C(=O)C2CC=C(Cl)CC2C1=O)NCc1ccccc1` (configuration not stated), the cell number change came to 1.35%.
On to `O=C(Nc1cccc(S(=O)(=O)N2CCOCC2)c1)C1=NN(c2ccccc2)C(=O)CC1`, for which the cell number change is 19%. Also, the AC50 under setting [2] was 29.1 µM [falling, single point].
For the compound `O=C(NN1C(=O)/C(=C/C=C/c2ccco2)SC1=S)c1ccncc1`, the half-maximal activity concentration (AC50) under setting [2] is 29.1 µM [rising, single point].
Same read-out and setting: the figure for `Cc1ccc(C(CNC(=O)Nc2ccccc2)N2CCN(C)CC2)cc1` (configuration not stated) is 29.1 µM [falling, single point].
For the compound `Cc1c(Cl)cccc1NC(=O)CCN1CCN(CCO)CC1`, the cell number change is -9.79%. Moreover, the AC50 under setting [2] is 0.82 µM [rising, partial curve, poor fit].
Consider `CC(C)(C)C(=O)/C=c1\[nH]c(=O)/c(=C\c2ccc(F)cc2)s1`, for which the cell number change is -54.8%. Further, the half-maximal activity concentration (AC50) under setting [1] is 29.1 µM [falling, single point].
As for `O=C(O)c1cccc(NC(=S)N/N=C/c2ccccn2)c1`, the cell number change was -7.51%. Under setting [1], the AC50 was 0.103 µM [falling, full curve, poor fit]. The AC50 under setting [2] is 29.1 µM [rising, single point].
As for `COCCNC(=O)CCCCCNS(=O)(=O)c1ccc(C)cc1`, the cell number change was -27.1%. The AC50 under setting [1] is 0.731 µM [falling, full curve]. Also, the AC50 under setting [2] is 29.1 µM [falling, single point].
`Cc1ccc(NC(=S)N2CCC(NC(=O)c3ccco3)CC2)cc1C`: the cell number change was found to be 42.7%. Also, the AC50 under setting [1] is 16.4 µM [rising, partial curve, poor fit].
For `Cc1oc(C)c(C(N)=O)c1C(N)=O`, the cell number change was -58.4%. The AC50 under setting [1] was 10.3 µM [falling, partial curve]. The AC50 under setting [2] was 29.1 µM [falling, single point].
In the case of `CC(C)(C)c1ccc(C(=O)O/N=C(\N)c2ccccn2)cc1`, the cell number change was -18.4%. The AC50 under setting [2] is 0.1 µM [falling, full curve, poor fit].
Regarding `O=C(c1cccc(Cl)c1)N1CCC(=O)N(C(COCc2ccccc2)Cc2ccccc2)CC1` (configuration not stated), the cell number change was found to be 18.9%.
On the same count and under the same terms, the figure for `O=C(O)c1cccc([N+](=O)[O-])c1C(=O)Nc1ccc2ccccc2c1` is 1.05%.
As for `CCc1ccc(-c2cc3c(=O)n(CC(=O)NCCN4CCCCC4C)nc(C)n3n2)cc1` (configuration not stated), the cell number change is -13.4%. The AC50 under setting [2] was 3.66 µM [rising, single point].
`CC1CCCCN1C(=O)CSc1nnc(-c2ccco2)n1C` (configuration not stated): the cell number change turned out to be 16.7%.
Consider `CC(CN1CCCC1)C(=O)NN` (configuration not stated), for which the cell number change turned out to be 7.36%. Further, under setting [1], the concentration at half-maximal activity (AC50) was 0.651 µM [falling, full curve, poor fit].
With `CCOc1cc(C(=O)N2CCN(c3ccc(C(C)=O)cc3)CC2)cc(OCC)c1OCC`, the cell number change is -7.37%. The concentration at half-maximal activity (AC50) under setting [2] is 2.31 µM [rising, full curve].
On to `Cc1ccccc1CN1CCc2c(OCC(=O)N3CCCc4ccccc43)cccc2C1=O`, for which the cell number change was -3.6%. For the same compound, the AC50 under setting [2] is 29.1 µM [falling, single point].
For `COC(=O)c1ccccc1NC(=O)CSCC(=O)Nc1ccc(F)cc1`, the cell number change was -14.6%. For the same compound, under setting [2], the half-maximal activity concentration (AC50) was 29.1 µM [rising, single point].
As for `CSc1ncccc1C(=O)OCC(=O)NCc1ccc2c(c1)OCO2`, the cell number change turned out to be 32.1%. In addition, under setting [1], the AC50 is 3.26 µM [rising, partial curve]. Further, the AC50 under setting [2] was 0.461 µM [rising, full curve, poor fit].
For `O=C(COc1nsnc1N1CCOCC1)Nc1cccc(Cl)c1`, the cell number change turned out to be 34.5%. Besides, under setting [1], the AC50 was 8.2 µM [rising, partial curve]. Further, under setting [2], the AC50 is 23.1 µM [rising, single point].
With `CC(C)(C)NCc1cc2ccccc2[nH]c1=O`, the cell number change is -71.5%. For the same compound, under setting [1], the concentration at half-maximal activity (AC50) was 29.1 µM [falling, single point]. Besides, the AC50 under setting [2] is 0.0651 µM [rising, full curve, poor fit].
As to `O=C(NCCCn1ccnc1)Nc1ccc(Cl)cc1Cl`, the cell number change is -21.5%. Moreover, the half-maximal activity concentration (AC50) under setting [2] was 6.51 µM [rising, single point].
Turning to `Cc1ccc(C(=O)Cn2c(C)cc(C)c(C#N)c2=O)cc1`, the cell number change stood at 15.6%.
Take `O=C(Nc1cccc(-c2nnc(-c3ccccc3)o2)c1)c1ccc(Br)o1`: the cell number change is -14.6%. The AC50 under setting [2] was 0.103 µM [rising, full curve, poor fit].
For the compound `Cc1ccc(Oc2ccc(OCC(=O)NC(CC(C)C)C(=O)O)cc2)cc1` (configuration not stated), the cell number change worked out at 16.3%. In addition, the AC50 under setting [1] is 0.00517 µM [falling, full curve, poor fit].
As to `COc1cc([N+](=O)[O-])ccc1NC(=O)CN1CCCC1`, the cell number change came to 44.9%. The concentration at half-maximal activity (AC50) under setting [1] was 20.6 µM [rising, single point]. For the same compound, under setting [2], the AC50 is 16.4 µM [rising, partial curve, poor fit].
Consider `COc1ccccc1N(C)S(=O)(=O)c1ccc(C(=O)NC(C)(C)C)cc1`, for which the cell number change was -18.9%. Also, the AC50 under setting [1] was 0.58 µM [falling, full curve, poor fit].
Take `COC(=O)c1ccccc1NC(=O)CSc1nc(-c2ccco2)cc(C(F)(F)F)n1`: the cell number change is -6.48%. Under setting [2], the AC50 was 0.731 µM [rising, partial curve].
Turning to `O=C(N/N=C/C=C/c1ccc2c(c1)OCO2)C(O)c1ccccc1` (configuration not stated), the cell number change amounted to 19.9%. Besides, the AC50 under setting [2] was 20.6 µM [rising, single point].
With `CCOC(=O)C1CCCN(c2cc(=O)n(Cc3ccc(F)cc3)c(=O)[nH]2)C1` (configuration not stated), the cell number change is -9.14%. The AC50 under setting [2] was 0.00461 µM [rising, full curve, poor fit].
